{
  "source": "patent US9539221B2",
  "about": "“Method of treating airway diseases with β-adrenergic inverse agonists” (EGB ADVISORS, LLC, priority 2003, dated 2017)",
  "origin": "cited, not measured here",
  "details": "after inhalation; cited from earlier work",
  "data": [
    {"smiles": "CN1[C@@H]2CC[C@H]1C[C@@H](OC(=O)C(CO)c1ccccc1)C2", "note": "(stereo partly shown) [atropine]", "values": [
      {"measurement": "systemic absorption", "value": "nearly complete"}
    ]}
  ]
}
